For one substance, binding results are on record in US20060183130A1 (VANDERBILT UNIVERSITY, published 2006).

Sequences of proteins named here, by UniProt entry; tags and fusion partners are left off. A change or cut given only in a name is not applied to a line headed by its entry.
UniProt P01108: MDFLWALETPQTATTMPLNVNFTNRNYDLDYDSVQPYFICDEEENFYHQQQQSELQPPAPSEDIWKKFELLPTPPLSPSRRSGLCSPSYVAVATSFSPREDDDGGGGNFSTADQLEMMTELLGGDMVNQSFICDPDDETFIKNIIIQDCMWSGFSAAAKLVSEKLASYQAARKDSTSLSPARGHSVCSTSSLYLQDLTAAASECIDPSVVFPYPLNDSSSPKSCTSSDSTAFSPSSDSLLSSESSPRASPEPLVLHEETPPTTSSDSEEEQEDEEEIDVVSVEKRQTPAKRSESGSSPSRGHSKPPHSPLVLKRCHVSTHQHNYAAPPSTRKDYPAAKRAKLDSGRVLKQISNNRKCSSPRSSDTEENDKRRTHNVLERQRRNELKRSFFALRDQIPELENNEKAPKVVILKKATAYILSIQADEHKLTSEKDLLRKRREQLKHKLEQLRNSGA

In this experiment the target is T1, mouse p19ARF (murine p19Arf) (mouse) (UniProt Q64364).
T1 sequence: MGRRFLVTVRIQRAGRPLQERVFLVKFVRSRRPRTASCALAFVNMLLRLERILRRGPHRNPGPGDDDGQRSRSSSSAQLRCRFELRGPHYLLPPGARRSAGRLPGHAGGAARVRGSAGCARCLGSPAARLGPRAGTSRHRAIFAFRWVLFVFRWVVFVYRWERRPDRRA
Description: co-IP with anti-ARF from transfected Cos-7 cells, immunoblot (FIG. 2E, right panel). A general note: In western blotting, separated proteins are transferred to a membrane and probed.

These are yes or no findings as the source states them, for the method shown. Binding seen in cells or lysates may run through a third protein. Binding calls can cover weak binding; strength is not graded here.

As for c-Myc 1-144 (from UniProt P01108), the binding entry was “binds”.
